Test results: the supplement of paper PMC10849652
The other results are listed elsewhere or left out.

By UniProt entry, the sequences of proteins in these tests, tags left out. Where a name states a change or a piece, a line headed by the entry shows the natural chain unless it says otherwise.
UniProt Q15035: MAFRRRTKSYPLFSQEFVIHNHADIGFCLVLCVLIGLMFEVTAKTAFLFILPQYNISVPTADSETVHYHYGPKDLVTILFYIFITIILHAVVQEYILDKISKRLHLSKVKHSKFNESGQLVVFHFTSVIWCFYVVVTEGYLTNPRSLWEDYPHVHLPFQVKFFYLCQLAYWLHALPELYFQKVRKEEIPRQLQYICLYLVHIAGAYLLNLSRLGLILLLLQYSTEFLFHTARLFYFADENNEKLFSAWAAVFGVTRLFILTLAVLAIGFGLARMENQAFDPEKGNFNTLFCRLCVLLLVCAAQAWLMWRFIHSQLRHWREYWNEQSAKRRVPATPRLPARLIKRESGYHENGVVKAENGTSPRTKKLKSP
UniProt P19474, whole entry, looked up: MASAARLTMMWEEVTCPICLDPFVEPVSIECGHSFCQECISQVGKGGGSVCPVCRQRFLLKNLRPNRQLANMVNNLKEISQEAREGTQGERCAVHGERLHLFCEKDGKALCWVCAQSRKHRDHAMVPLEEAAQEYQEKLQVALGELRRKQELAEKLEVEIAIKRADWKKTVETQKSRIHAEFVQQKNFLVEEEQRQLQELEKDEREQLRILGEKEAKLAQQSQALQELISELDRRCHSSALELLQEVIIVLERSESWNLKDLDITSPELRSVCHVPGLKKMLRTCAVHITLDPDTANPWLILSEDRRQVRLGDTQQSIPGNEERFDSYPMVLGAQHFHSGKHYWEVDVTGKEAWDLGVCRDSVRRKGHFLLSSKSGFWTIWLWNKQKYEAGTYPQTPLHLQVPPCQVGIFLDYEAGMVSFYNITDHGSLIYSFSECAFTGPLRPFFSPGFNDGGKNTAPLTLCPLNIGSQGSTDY
UniProt Q15025: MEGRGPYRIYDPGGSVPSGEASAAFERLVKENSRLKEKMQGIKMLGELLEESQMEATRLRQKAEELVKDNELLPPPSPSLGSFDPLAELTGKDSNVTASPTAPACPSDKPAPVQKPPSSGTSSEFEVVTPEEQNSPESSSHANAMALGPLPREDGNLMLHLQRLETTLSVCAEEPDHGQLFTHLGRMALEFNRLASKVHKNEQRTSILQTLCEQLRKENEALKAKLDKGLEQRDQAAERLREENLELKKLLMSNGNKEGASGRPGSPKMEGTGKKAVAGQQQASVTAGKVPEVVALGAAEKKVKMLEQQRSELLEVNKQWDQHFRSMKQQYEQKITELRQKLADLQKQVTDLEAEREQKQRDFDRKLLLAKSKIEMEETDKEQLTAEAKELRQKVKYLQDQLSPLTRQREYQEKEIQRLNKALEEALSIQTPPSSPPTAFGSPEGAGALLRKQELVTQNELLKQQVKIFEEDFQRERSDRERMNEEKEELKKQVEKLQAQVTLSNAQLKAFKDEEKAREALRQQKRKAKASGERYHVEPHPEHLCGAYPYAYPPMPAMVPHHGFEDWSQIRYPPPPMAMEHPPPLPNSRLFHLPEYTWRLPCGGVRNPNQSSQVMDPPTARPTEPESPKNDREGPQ
UniProt Q32P41: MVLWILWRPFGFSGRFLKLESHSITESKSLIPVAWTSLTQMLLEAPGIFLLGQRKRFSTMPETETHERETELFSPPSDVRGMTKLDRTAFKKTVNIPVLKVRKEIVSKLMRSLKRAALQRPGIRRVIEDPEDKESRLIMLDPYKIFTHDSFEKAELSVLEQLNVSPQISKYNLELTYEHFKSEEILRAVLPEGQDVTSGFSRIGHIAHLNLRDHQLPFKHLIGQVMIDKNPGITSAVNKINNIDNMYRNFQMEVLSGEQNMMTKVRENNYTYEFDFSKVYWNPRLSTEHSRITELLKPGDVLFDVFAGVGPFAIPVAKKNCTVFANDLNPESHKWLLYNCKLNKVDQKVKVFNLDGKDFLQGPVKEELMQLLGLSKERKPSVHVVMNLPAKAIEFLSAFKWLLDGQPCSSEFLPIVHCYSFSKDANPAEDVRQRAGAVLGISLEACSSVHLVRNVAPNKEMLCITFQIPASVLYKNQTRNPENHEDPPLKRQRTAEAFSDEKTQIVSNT
UniProt Q9H4I3: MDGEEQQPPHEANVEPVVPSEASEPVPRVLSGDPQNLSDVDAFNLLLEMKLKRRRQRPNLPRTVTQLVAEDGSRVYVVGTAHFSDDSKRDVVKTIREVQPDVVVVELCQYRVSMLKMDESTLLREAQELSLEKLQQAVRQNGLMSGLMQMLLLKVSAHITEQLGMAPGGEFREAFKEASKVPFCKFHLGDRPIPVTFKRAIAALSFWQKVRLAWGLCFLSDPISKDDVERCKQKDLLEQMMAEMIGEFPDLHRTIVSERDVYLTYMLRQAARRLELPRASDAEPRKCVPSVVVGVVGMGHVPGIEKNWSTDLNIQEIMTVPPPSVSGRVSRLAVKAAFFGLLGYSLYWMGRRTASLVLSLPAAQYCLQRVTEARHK
UniProt P49815: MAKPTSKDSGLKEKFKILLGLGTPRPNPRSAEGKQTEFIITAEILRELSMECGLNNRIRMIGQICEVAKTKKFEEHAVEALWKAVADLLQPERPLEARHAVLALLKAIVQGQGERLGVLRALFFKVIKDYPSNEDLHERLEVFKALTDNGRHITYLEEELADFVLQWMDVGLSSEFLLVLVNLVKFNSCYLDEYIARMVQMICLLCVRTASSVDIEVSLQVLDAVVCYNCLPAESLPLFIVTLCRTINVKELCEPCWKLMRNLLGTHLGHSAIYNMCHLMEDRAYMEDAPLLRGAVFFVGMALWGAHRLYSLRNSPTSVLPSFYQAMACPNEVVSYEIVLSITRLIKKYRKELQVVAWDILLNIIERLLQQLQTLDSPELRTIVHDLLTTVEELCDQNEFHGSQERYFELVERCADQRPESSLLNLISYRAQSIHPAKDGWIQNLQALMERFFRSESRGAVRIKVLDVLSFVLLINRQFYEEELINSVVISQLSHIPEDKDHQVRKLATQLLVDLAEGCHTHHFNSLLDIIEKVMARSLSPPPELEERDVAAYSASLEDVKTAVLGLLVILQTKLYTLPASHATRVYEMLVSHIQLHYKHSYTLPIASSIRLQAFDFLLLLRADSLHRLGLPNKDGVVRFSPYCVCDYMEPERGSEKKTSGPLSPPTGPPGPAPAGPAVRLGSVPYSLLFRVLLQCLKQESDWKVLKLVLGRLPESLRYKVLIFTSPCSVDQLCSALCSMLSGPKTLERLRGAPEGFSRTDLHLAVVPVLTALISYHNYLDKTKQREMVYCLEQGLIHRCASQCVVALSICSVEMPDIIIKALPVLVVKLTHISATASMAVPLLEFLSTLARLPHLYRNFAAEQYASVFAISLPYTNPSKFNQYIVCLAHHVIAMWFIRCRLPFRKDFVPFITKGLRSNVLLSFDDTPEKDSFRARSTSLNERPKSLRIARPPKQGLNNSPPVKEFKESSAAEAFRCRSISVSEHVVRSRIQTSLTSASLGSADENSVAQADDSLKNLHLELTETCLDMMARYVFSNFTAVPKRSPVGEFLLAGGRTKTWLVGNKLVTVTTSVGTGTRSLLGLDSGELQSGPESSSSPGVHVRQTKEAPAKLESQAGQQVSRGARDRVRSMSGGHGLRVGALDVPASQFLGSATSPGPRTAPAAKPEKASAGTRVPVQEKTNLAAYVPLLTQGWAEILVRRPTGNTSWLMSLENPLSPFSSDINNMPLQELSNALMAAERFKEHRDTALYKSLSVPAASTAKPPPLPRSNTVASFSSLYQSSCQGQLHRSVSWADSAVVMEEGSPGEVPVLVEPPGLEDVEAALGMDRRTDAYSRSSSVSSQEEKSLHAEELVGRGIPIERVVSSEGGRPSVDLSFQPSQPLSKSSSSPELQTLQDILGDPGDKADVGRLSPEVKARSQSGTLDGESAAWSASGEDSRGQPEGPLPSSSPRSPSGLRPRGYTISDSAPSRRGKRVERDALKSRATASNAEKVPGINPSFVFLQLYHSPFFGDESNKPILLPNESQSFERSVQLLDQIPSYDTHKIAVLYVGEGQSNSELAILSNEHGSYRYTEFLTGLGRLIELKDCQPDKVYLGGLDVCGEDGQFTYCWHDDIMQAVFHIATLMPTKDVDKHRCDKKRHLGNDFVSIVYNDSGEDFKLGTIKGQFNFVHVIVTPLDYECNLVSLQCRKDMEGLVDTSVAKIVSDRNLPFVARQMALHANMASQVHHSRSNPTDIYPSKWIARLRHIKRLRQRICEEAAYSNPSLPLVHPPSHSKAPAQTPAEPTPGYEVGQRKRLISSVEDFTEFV
UniProt Q9C037: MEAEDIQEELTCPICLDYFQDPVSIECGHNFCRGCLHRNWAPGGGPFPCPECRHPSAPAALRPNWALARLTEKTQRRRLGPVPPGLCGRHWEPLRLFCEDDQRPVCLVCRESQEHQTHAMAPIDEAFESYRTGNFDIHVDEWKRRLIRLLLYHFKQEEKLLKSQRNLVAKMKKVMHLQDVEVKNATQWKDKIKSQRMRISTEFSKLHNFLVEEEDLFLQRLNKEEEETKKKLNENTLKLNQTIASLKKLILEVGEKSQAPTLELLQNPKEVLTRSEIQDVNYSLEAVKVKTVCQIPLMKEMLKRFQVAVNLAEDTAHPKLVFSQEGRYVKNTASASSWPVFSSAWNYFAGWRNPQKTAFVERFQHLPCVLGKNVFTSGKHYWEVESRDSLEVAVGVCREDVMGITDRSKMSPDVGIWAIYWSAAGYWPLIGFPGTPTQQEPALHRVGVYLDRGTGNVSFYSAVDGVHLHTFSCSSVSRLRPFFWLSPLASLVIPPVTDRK
UniProt Q86W33: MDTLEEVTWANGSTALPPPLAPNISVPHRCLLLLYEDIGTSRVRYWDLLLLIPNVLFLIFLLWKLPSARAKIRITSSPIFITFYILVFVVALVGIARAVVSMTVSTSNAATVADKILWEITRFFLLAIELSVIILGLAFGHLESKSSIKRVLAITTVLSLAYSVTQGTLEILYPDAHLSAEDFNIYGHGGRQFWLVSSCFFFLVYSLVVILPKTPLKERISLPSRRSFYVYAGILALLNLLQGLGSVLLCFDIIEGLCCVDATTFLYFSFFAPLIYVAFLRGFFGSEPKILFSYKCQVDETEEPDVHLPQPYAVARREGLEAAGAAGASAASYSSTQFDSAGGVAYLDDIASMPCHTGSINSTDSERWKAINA
UniProt Q15628: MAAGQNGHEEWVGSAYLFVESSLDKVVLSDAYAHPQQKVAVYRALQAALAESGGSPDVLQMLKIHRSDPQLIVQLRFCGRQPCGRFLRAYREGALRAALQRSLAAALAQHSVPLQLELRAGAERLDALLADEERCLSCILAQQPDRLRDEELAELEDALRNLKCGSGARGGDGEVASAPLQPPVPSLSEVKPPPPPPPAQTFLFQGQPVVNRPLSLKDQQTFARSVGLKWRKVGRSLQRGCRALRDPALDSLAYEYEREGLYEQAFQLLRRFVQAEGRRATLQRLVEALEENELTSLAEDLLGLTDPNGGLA
UniProt Q6PJ69: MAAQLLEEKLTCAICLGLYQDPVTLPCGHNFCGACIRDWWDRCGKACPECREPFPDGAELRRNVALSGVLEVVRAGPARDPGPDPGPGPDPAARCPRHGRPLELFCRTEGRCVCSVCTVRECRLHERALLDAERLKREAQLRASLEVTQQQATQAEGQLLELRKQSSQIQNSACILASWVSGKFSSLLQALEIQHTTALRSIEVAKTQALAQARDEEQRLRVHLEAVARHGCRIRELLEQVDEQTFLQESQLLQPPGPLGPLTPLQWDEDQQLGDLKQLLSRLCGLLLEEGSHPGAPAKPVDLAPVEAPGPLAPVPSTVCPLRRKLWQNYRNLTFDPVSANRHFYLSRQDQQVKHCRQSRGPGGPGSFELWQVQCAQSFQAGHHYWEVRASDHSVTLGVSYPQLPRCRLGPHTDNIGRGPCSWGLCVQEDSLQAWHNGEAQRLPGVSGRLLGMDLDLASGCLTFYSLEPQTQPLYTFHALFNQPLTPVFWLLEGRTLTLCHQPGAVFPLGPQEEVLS
UniProt Q9H496: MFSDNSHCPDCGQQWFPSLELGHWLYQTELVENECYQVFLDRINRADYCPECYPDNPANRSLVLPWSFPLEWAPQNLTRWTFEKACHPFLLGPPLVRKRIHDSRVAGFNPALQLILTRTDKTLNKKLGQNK
UniProt Q14134: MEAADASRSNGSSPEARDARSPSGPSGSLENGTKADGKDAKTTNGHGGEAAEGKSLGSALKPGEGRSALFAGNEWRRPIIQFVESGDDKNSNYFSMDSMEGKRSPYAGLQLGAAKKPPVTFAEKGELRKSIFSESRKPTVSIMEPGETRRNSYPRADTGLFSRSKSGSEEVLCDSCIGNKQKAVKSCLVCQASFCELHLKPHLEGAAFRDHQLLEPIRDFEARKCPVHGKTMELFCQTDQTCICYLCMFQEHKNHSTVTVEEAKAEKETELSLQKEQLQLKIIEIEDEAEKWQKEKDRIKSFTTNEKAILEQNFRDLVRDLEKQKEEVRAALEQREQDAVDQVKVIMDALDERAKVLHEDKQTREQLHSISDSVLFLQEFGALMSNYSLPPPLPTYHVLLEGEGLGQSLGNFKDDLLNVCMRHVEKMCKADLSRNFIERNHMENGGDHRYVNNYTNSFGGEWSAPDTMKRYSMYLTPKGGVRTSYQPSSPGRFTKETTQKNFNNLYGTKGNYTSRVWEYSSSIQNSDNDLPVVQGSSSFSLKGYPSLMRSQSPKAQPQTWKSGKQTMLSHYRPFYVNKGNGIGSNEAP

Compound: CN1CCc2c(c3ccccc3n2Cc2ccc(C(=O)NO)cc2)C1 [Tubastatin A]
Experiment: log2 fold change, soluble protein after heating vs DMSO (PISA); higher = thermal stabilisation; K562 cells, 10 uM, 30 min; active = over 0.2 and 3.5 SD of the protein, either way, in both replicates (recomputed)
In short: (§1)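 For each measurement, 10 μM compound was applied for 30 min to K562 cells at 2×10^6 cells/mL. Aliquots were heated for 3 min across 48°C-58°C, pooled, and extracted in PBS with 0.5% NP-40 at 4°C; the supernatant after 21,000xg for 90 min was soluble protein. This was quantified by TMTpro 16plex LC-MS/MS with channel sums equalised, and thermal stability was reported relative to control samples from duplicates, on a log2 fold-change scale.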

Row | Target | log2 fold change
1 | TRAPPC2 isoform 3 (UniProt P0DI81) | inactive: 0.085
2 | TOM1 (UniProt O60784) | inactive: 0.002
3 | TRAM2 (UniProt Q15035) | inactive: -0.096
4 | TRIP12 isoform 3 (UniProt Q14669) | inactive: -0.021
5 | TPRG1L (UniProt Q5T0D9) | inactive: 0.121
6 | TRA2A (UniProt Q13595) | inactive: -0.02
7 | TRIM21 (UniProt P19474) | inactive: 0.057
8 | TNIP1 (UniProt Q15025) | inactive: 0.025
9 | TRMT5 (UniProt Q32P41) | inactive: 0.066
10 | TPD52L2 isoform 3 (UniProt O43399) | inactive: -0.093
11 | TRIO (UniProt O75962) | inactive: -0.048
12 | TRABD (UniProt Q9H4I3) | inactive: 0.06
13 | TSC2 (UniProt P49815) | inactive: 0.437
14 | TRIM4 (UniProt Q9C037) | inactive: 0.097

Compound: CNC(=O)C1=CC=CC=C1NC2=NC(=NC=C2Cl)NC3=C(C=C(C=C3)N4CCOCC4)OC
Experiment: as above
In short: as §1

Row | Target | log2 fold change
15 | TRPT1 isoform 4 (UniProt Q86TN4) | inactive: -0.069
16 | TRAPPC2 isoform 3 (UniProt P0DI81) | inactive: -0.027
17 | TOM1 (UniProt O60784) | inactive: -0.113
18 | TRAPPC6A isoform 2 (UniProt O75865) | inactive: -0.078
19 | TRAM2 (UniProt Q15035) | inactive: -0.089
20 | TPRA1 (UniProt Q86W33) | inactive: 0.07
21 | TRADD (UniProt Q15628) | inactive: -0.011
22 | TNK2 isoform 3 (UniProt Q07912) | inactive: -0.071
23 | TRAF7 (UniProt Q6Q0C0) | inactive: -0.007
24 | TPRG1L (UniProt Q5T0D9) | inactive: 0.052
25 | TRIM21 (UniProt P19474) | inactive: -0.004
26 | TNIP1 (UniProt Q15025) | inactive: -0.181
27 | TRMT5 (UniProt Q32P41) | inactive: -0.125
28 | TRIO (UniProt O75962) | inactive: 0.323
29 | TRABD (UniProt Q9H4I3) | inactive: 0.131
30 | TRPS1 isoform 2 (UniProt Q9UHF7) | inactive: -0.447
31 | TSC2 (UniProt P49815) | inactive: -0.603
32 | TRIM4 (UniProt Q9C037) | active: 0.439

Compound: CNC(=O)c1ccc(Nc2ncc(C(F)(F)F)c(NCc3nccnc3N(C)S(C)(=O)=O)n2)cc1 [defactinib]
Experiment: as above
In short: as §1

Row | Target | log2 fold change
33 | TRAPPC2 isoform 3 (UniProt P0DI81) | inactive: -0.081
34 | TRIM65 (UniProt Q6PJ69) | inactive: -0.343
35 | TRAM2 (UniProt Q15035) | inactive: -0.03
36 | TPRA1 (UniProt Q86W33) | inactive: -0.034
37 | TRIP12 isoform 3 (UniProt Q14669) | inactive: 0.108
38 | TRADD (UniProt Q15628) | inactive: 0.029
39 | TRAF7 (UniProt Q6Q0C0) | inactive: 0.03
40 | TRMT5 (UniProt Q32P41) | inactive: -0.16
41 | TRIM41 (UniProt Q8WV44) | inactive: -0.142
42 | TRAF3IP1 (UniProt Q8TDR0) | inactive: -0.022
43 | TPD52L2 isoform 3 (UniProt O43399) | inactive: 0.034
44 | TRABD (UniProt Q9H4I3) | inactive: -0.096
45 | TRAF3 (UniProt Q13114) | inactive: 0.1
46 | TRIM4 (UniProt Q9C037) | inactive: -0.029

Compound: CNCc1ccc(-c2[nH]c3cc(F)cc4c3c2CCNC4=O)cc1 [rucaparib]
Experiment: as above
In short: as §1

Row | Target | log2 fold change
47 | TRPT1 isoform 4 (UniProt Q86TN4) | inactive: 0.101
48 | TRIM65 (UniProt Q6PJ69) | inactive: -0.011
49 | TRAPPC6A isoform 2 (UniProt O75865) | inactive: -0.03
50 | TRAM2 (UniProt Q15035) | inactive: -0.009
51 | TRIP12 isoform 3 (UniProt Q14669) | inactive: -0.216
52 | TPRG1L (UniProt Q5T0D9) | inactive: 0.014
53 | TRIT1 (UniProt Q9H3H1) | inactive: 0.423
54 | TNXB isoform 4 (UniProt P22105) | inactive: 0.147
55 | TNIP1 (UniProt Q15025) | inactive: 0.207
56 | TOR1AIP2 (UniProt Q9H496) | inactive: 0.142
57 | TRMT5 (UniProt Q32P41) | inactive: 0.191
58 | TRIM29 (UniProt Q14134) | inactive: -0.027
59 | TRIO (UniProt O75962) | inactive: -0.116
60 | TRABD (UniProt Q9H4I3) | inactive: 0.073
61 | TSC2 (UniProt P49815) | inactive: -0.097
62 | TRIM4 (UniProt Q9C037) | inactive: 0.031

Compound: CNc1nc(-c2ccc3c(N)n[nH]c3c2)cc(N2C[C@@H](C(=O)NC3CCCCC3)CC[C@H]2C)n1
Experiment: as above
In short: as §1

Row | Target | log2 fold change
63 | TPD52 isoform 3 (UniProt P55327) | inactive: 0.008
64 | TRAPPC2 isoform 3 (UniProt P0DI81) | inactive: -0.081
65 | TRIM65 (UniProt Q6PJ69) | inactive: 0.138
66 | TRIP12 isoform 3 (UniProt Q14669) | inactive: 0.04
67 | TRADD (UniProt Q15628) | inactive: -0.164
68 | TNK2 isoform 3 (UniProt Q07912) | inactive: -0.025
69 | TNKS (UniProt O95271) | inactive: -0.416
70 | TRIM21 (UniProt P19474) | inactive: 0.022
71 | TRAF3IP1 (UniProt Q8TDR0) | inactive: 0.074
